Assay results published in the supplement of paper PMC12067093, “Discovery and optimisation of a covalent ligand for TRIM25 and its application to targeted protein ubiquitination” (Chemical Science, 2025).
This is one part of the list.

By UniProt entry, the sequences of proteins in these tests, tags left out. Where a name states a change or a piece, a line headed by the entry shows the natural chain unless it says otherwise.
UniProt Q9NU22: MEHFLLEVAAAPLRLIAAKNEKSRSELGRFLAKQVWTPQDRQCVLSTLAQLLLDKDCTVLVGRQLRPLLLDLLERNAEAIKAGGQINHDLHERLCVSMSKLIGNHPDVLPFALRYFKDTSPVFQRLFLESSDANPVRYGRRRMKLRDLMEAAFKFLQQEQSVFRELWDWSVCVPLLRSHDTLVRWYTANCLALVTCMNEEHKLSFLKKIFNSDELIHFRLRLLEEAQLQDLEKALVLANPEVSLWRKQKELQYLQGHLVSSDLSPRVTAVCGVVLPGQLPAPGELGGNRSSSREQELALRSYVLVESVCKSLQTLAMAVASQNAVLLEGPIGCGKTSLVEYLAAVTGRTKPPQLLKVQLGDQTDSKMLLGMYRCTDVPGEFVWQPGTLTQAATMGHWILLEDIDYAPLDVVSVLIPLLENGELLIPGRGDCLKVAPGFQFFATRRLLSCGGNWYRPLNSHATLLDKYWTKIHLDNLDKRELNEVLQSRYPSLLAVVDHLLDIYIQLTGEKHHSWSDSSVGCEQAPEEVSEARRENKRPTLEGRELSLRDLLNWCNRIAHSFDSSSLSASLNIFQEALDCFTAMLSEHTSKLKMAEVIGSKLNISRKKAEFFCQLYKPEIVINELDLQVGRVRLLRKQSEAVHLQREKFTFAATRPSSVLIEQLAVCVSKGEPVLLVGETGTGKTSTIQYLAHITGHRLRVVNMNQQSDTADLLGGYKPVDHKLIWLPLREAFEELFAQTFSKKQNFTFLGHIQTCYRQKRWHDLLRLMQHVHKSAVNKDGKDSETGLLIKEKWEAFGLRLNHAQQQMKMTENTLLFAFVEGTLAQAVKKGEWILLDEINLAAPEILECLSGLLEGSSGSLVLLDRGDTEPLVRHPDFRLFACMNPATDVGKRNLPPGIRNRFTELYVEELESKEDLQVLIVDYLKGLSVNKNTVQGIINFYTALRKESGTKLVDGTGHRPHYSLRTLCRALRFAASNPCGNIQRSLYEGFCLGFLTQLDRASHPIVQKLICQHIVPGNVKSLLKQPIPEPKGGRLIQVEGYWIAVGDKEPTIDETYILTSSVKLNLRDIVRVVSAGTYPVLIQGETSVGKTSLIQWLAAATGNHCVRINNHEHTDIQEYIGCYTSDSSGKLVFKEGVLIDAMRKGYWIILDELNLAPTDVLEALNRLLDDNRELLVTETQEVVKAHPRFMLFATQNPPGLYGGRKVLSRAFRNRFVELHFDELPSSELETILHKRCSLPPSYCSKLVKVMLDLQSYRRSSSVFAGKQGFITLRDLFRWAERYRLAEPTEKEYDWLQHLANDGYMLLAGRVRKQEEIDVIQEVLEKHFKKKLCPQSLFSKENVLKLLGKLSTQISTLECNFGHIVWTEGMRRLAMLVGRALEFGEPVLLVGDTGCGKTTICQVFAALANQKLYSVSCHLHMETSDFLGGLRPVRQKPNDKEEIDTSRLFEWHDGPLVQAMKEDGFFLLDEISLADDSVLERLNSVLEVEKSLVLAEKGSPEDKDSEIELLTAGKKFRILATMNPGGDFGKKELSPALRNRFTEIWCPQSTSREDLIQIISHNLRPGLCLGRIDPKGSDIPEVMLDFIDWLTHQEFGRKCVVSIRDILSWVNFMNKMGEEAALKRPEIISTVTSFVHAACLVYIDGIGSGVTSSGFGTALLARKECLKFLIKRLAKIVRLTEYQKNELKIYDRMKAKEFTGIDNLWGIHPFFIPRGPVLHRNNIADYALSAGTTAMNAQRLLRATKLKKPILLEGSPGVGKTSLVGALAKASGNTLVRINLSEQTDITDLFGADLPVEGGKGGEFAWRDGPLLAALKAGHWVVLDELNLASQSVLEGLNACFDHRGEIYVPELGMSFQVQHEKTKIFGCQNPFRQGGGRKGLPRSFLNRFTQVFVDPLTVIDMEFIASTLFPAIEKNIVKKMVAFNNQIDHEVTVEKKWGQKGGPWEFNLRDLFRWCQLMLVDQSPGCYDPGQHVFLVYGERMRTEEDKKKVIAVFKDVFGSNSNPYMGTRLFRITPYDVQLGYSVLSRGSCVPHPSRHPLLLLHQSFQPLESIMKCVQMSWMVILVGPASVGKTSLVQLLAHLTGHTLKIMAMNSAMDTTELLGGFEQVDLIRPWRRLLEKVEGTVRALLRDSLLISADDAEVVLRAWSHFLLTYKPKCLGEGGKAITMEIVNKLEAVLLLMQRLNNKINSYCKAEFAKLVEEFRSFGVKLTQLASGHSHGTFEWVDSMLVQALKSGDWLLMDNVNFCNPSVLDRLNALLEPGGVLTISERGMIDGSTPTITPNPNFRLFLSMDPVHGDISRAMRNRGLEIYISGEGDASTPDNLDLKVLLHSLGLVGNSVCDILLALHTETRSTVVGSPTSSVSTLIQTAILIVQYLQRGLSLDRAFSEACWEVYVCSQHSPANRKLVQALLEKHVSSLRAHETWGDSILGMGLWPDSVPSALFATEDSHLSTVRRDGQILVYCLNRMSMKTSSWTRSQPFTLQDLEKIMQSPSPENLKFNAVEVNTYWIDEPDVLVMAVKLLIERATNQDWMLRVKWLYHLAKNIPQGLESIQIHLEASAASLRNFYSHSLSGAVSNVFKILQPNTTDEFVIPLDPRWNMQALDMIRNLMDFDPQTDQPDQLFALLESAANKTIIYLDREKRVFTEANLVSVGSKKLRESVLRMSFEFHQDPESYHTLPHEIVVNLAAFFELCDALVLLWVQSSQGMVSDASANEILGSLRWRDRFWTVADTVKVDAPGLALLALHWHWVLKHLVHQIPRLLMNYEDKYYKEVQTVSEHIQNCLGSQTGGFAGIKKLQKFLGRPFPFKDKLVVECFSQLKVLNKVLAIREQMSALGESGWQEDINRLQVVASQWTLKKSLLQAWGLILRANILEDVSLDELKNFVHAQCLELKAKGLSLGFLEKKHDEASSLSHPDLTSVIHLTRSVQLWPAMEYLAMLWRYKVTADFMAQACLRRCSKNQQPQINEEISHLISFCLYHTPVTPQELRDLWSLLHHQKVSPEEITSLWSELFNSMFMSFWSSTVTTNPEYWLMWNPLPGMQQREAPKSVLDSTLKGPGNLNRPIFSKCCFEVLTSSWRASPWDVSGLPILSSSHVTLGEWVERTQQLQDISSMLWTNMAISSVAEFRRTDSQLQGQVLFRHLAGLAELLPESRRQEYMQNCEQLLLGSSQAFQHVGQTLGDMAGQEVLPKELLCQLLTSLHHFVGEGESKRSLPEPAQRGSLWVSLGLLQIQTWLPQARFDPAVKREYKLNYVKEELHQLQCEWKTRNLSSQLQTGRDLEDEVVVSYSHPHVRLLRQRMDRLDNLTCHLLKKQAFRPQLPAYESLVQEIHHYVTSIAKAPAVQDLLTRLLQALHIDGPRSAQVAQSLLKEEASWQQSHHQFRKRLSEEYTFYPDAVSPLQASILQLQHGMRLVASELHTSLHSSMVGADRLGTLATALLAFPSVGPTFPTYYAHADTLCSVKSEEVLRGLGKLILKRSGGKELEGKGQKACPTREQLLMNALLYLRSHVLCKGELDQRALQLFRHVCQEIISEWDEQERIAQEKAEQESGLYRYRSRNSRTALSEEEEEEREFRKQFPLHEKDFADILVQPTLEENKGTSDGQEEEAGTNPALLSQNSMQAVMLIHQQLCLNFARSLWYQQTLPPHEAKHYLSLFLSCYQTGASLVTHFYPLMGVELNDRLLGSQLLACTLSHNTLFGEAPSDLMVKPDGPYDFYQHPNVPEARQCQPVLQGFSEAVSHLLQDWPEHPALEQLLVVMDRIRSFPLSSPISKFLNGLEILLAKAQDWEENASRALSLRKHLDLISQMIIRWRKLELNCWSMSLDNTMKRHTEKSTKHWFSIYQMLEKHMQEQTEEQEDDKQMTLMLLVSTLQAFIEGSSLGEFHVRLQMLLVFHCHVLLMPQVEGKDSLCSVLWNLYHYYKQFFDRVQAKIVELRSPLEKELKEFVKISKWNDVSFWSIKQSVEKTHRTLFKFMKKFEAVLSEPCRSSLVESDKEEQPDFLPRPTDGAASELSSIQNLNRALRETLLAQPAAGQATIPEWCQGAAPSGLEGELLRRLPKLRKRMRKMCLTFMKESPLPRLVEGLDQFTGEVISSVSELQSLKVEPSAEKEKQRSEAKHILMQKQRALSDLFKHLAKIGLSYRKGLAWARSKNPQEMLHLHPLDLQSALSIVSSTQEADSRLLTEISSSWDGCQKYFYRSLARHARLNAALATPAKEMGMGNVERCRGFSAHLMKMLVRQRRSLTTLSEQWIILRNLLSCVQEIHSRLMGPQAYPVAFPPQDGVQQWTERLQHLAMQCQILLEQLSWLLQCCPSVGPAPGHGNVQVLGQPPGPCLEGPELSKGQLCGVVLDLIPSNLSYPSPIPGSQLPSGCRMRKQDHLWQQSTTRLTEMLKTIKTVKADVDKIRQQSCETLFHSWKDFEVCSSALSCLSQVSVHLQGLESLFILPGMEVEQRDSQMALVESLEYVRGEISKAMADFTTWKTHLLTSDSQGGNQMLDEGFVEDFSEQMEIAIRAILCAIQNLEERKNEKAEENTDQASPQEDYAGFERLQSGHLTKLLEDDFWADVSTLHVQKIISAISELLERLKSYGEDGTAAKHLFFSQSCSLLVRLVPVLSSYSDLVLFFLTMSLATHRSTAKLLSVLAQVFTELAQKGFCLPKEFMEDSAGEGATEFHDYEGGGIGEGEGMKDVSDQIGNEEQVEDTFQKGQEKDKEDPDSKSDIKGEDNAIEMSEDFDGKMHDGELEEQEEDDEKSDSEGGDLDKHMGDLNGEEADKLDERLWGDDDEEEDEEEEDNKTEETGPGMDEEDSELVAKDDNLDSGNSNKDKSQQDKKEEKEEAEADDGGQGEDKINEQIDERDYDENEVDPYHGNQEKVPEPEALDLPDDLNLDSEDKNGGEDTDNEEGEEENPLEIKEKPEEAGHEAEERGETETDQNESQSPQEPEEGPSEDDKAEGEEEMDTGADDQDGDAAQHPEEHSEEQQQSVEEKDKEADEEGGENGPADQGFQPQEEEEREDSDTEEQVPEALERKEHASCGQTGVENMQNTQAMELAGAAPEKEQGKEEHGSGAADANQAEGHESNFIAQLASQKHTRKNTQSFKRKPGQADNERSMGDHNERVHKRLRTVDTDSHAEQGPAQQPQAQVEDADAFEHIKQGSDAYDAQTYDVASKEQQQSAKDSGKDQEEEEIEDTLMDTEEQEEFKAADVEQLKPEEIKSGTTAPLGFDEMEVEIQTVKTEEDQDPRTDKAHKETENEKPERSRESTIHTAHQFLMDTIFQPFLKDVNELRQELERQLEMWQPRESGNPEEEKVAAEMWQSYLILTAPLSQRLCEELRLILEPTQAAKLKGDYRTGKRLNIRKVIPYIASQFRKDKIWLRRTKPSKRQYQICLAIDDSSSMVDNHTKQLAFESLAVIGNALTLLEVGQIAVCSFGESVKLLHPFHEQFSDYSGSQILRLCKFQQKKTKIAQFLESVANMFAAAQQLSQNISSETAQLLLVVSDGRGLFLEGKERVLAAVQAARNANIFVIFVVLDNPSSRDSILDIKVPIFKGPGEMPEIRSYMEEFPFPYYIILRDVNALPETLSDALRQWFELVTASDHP
UniProt Q6P2C8: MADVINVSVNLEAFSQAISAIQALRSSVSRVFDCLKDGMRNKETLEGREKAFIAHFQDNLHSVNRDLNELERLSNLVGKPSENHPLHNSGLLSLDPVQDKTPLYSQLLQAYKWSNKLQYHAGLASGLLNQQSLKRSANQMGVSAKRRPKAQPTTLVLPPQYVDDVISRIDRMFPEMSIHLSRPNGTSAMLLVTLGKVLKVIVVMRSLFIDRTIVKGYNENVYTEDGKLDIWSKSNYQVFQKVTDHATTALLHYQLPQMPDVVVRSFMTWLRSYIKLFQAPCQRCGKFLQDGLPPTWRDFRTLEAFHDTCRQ
UniProt Q9BV79: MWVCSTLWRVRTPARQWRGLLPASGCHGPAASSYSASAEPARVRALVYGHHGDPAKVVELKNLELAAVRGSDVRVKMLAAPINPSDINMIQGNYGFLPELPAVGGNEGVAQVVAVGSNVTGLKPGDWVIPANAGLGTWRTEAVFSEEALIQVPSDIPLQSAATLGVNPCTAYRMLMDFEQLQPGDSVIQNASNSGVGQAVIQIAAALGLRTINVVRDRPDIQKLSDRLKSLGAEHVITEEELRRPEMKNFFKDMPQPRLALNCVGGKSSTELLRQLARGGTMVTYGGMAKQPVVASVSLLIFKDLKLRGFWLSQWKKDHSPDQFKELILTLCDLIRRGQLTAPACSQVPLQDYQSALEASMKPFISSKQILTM

Compound: CC1Cc2ccccc2N1C(=O)C1CCCN(C1)C(=O)CCl (mixture of isomers) [TRIM25 ligand 11 (diastereomer mixture)]
Test: probe-labelled cysteine peptide fold change vs DMSO (competition) (log2 fold change); higher = less target engagement (more negative = stronger competition)
Settings: THP-1, incubation time: 4 h
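Note: competitive chemoproteomic profiling in live THP-1 cells with an iodoacetamide desthiobiotin (IA-DTB) probe, comparing probe-labelled peptide intensities in compound-treated cells against DMSO-treated controls.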

Target | probe-labelled cysteine peptide fold change (10 µM) | probe-labelled cysteine peptide fold change (50 µM)
ME2_P23368_441_CLFASGSPFGPVK (UniProt P23368) | -0.014 | -0.0719
MCM2_P49736_522_GDINVLLCGDPGTAK (UniProt P49736) | 0.0421 | -0.0432
MCM6_Q14566_721_LGFSEYCR (UniProt Q14566) | 0.0954 | 0.111
MCM3AP_O60318_1240_ETLQELQCFCK (UniProt O60318) | 0.398 | 0.321
MDN1_Q9NU22_1400_TTICQVFAALANQK (UniProt Q9NU22) | 0.156 | 0.0599
MED27_Q6P2C8_34_VFDCLK (UniProt Q6P2C8) | -0.114 | 0.17
METAP1_P53582_255_LVQTTYECLMQAIDAVKPGVR (UniProt P53582) | -0.0413 | -0.0427
MCMBP_Q9BTE3_396_FTVNLSGCPR (UniProt Q9BTE3) | 0.0635 | 0.0908
MELTF_P08582_545_CVGNSQER (UniProt P08582) | 0.206 | 0.242
MED1_Q15648_302_WTPSFSSITSANSVDLPACFFLK (UniProt Q15648) | -0.00458 | 0.123
MED27_Q6P2C8_309_TLEAFHDTCRQ (UniProt Q6P2C8) | 0.0636 | -0.0401
MCM6_Q14566_161_THPVHPELVSGTFLCLDCQTVIRDVEQQFK (UniProt Q14566) | -0.319 | 0.0688
MECR_Q9BV79_263_LALNCVGGK (UniProt Q9BV79) | -0.123 | 0.106
MDN1_Q9NU22_1332_KLCPQSLFSK (UniProt Q9NU22) | -0.248 | -0.123
MED27_Q6P2C8_309_TLEAFHDTCR (UniProt Q6P2C8) | 0.248 | -0.00346

3 successive entries already listed, quoted:
Target | probe-labelled cysteine peptide fold change (10 µM) | probe-labelled cysteine peptide fold change (50 µM)
MECR_Q9BV79_263_LALNCVGGK (UniProt Q9BV79) | -0.123 | 0.106
MDN1_Q9NU22_1332_KLCPQSLFSK (UniProt Q9NU22) | -0.248 | -0.123
MED27_Q6P2C8_309_TLEAFHDTCR (UniProt Q6P2C8) | 0.248 | -0.00346
